# Measurements as given in PubChem BioAssay AID2685 (National Center for Advancing Translational Sciences (NCATS), 2010).
# The list shows a part of the results. Shown are side measurements of this screen, not its main read-out; they come without a call. Compounds called inactive in the main read-out are mostly missing here. The note in brackets gives the kind of curve behind each potency; many fits are weak.
# Experiment: qHTS Assay for Lipid Storage Modulators in Drosophila S3 Cells;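 as to cell number change: cells counted by Cell Tracker Red CMTPX staining in the red channel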
# Settings: BODIPY lipid droplet fluorescence, 18-24 h; for cell number change: measured here: cell count max response, cells fed with added oleic acid
# Summary of the method: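 Drosophila S3 cells got compounds at several concentrations plus oleic acid (400 uM solution). Laser-scanning cytometry with 488 nm excitation read lipid droplets at 500-530 nm and cells at 575-640 nm. Percent activity was relative to 20 uM Triacsin C.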
# [1] = measured here: lipid fluorescence (Fed channel) AC50, cells fed with added oleic acid
# [2] = measured here: cell number channel AC50, cells fed with added oleic acid
SMILES,cell number change,AC50 [1],AC50 [2]
O=C(CSc1cn(CCNC(=O)c2cccs2)c2ccccc12)NC1CCCC1,1.89%,–,–
CCOC(=O)c1c(C)c(C)n(Cc2cccc(OC)c2OC)c1C,–,"18.4 µM [rising, single point]",–
CCC1CCCCN1S(=O)(=O)c1ccc(-n2cnnn2)c(C)c1 (stereo not drawn),-9.4%,–,–
CCOC(=O)CSc1nnc(Cn2nnc(-c3ccccc3)n2)n1CC,–,"29.1 µM [falling, single point]",–
Cc1sc2nc3c4ccccc4c(NCc4ccco4)nn3c(=O)c2c1C,–,"6.51 µM [rising, single point]","6.51 µM [rising, single point]"
CC/C(=N\NC(=O)c1c[nH]c2ccccc12)c1cccs1,-10.6%,"0.164 µM [falling, full curve, poor fit]",–
CCN1C(=O)CC(N2CCN(c3ccc(OC)cc3)CC2)C1=O (stereo not drawn),-1.79%,–,–
CC1CCN(C(=O)c2cc(-c3ccc4c(c3)OCO4)on2)CC1,5.56%,"6.51 µM [rising, single point]",–
C/C=C/c1ccc(OCC(=O)N(C)CC(=O)Nc2ccc(F)cc2)c(OC)c1,-2.03%,"0.291 µM [rising, partial curve, poor fit]",–
COc1ccc2ccccc2c1/C=N/NC(=S)Nc1cc(S(=O)(=O)N2CCOCC2)ccc1N1CCOCC1,6.51%,–,–
Cc1ccccc1NC(=O)COC(=O)C1=COCCO1,22.7%,"2.59 µM [rising, full curve]",–
COc1cccc(-n2nnnc2SCC(=O)Nc2ccc3c(c2)OCCO3)c1,-10.7%,"1.84 µM [rising, partial curve]","1.84 µM [rising, partial curve]"
O=C1Nc2ncccc2OC1CCO (stereo not drawn),–,"0.146 µM [falling, full curve, poor fit]",–
CC(C)(C)OC(=O)NCCCC[C@H](NC(=O)c1nc[nH]c1C(=O)NCc1ccc(CNC(=O)OC(C)(C)C)cc1)C(=O)OC(C)(C)C,6.89%,"29.1 µM [falling, single point]",–
CCn1c(C)nc2cc(C(=O)NNS(=O)(=O)c3c(F)cc(F)c(Cl)c3F)ccc21,24.7%,–,–
Oc1c(N=NC(=S)Nc2ccccc2F)c2ccccc2n1Cc1ccc(F)cc1,-34.4%,"29.1 µM [falling, single point]","20.6 µM [falling, single point]"
Cc1c(C(=O)Nc2ccccn2)oc2ccccc12,-20.7%,"0.651 µM [rising, single point]",–
CCC(C)(C)C1CCC2(CC1)NC(=O)N(CC(=O)N(C)CC(=O)Nc1ccccc1C(F)(F)F)C2=O (stereo not drawn),3.24%,"9.2 µM [falling, single point]",–
C[C@@H]1CC=C[C@H]2[C@H]1C(=O)N(Cc1ccccc1)[C@H]2c1ccc(F)c(-c2ccc(N(C)C)cc2)c1,-28.1%,–,–
c1ccc(-c2nnnc3ccccc23)cc1,5.01%,"0.103 µM [rising, full curve, poor fit]",–
O=[N+]([O-])c1ccc(S(=O)(=O)Nc2ccc(S(=O)(=O)N3CCCC3)cc2)cc1,-8.97%,"6.51 µM [rising, partial curve, poor fit]",–
CCN1CCN(C(=O)c2ccc(COc3cccc(Cl)c3)o2)CC1,1.59%,–,"3.66 µM [rising, partial curve, poor fit]"

SMILES,cell number change,AC50 [1],AC50 [2]
Cc1cc(C)cc(OCCNS(=O)(=O)c2cccs2)c1,1.73%,–,"2.91 µM [falling, single point]"
Cc1ccc(SCC(=O)Nc2ccc(S(N)(=O)=O)cc2)cc1,9.17%,"0.58 µM [falling, single point]",–
O=C(c1ccccc1)N1CCN=C1c1ccccc1,-0.916%,"6.51 µM [rising, single point]",–
CCOc1ccc(-c2nc(S(=O)(=O)c3ccccc3)c(NC)o2)cc1,-8.62%,–,"2.59 µM [rising, single point]"
CCOc1ccc(N2C(=O)C3CCCN3C2=O)cc1 (stereo not drawn),2.19%,–,–
COC(=O)c1sccc1NC(=O)CSc1nnnn1-c1ccccc1F,25.5%,"2.59 µM [rising, partial curve]","0.092 µM [rising, full curve]"
O=C(CC1SC(=Nc2ccc3c(c2)OCCO3)NC1=O)Nc1ccc(F)cc1F (stereo not drawn),-9%,"3.66 µM [falling, full curve]",–
COc1ccc(C)cc1NS(=O)(=O)c1ccc2c(c1)oc(=O)n2C,19%,–,–
COc1cc(C(O)P(=O)(OC(C)C)c2ccc(N(C)C)cc2)cc(OC)c1OC (stereo not drawn),-38.1%,–,–
COc1cc(/C=N/Nc2ccc([N+](=O)[O-])cn2)cc(OC)c1O,-9.01%,"0.058 µM [falling, full curve, poor fit]",–
Cc1cc(C)c(S(=O)(=O)N2CCN(C(=O)C(C)Cn3nc(C)nc3C)CC2)c(C)c1 (stereo not drawn),-11.1%,–,–
CCN(C(=O)CN1C(=O)NC(c2ccccc2)(c2ccc(C)c(C)c2)C1=O)C1CCS(=O)(=O)C1 (stereo not drawn),-10.5%,"29.1 µM [falling, single point]",–
CCOc1ccc(OCC)c(NC(=O)C2CCN(S(=O)(=O)c3c(C)noc3C)CC2)c1,-61.8%,"1.84 µM [falling, full curve]","3.66 µM [falling, full curve]"
O=c1c2ccccc2c(-c2ccccc2)nn1Cc1ccccc1,85.2%,"29.1 µM [rising, partial curve]","29.1 µM [rising, single point]"
O=C(COc1ccc(S(=O)(=O)N2CCOCC2)cc1)NCCc1ccccc1,34%,–,"5.17 µM [rising, partial curve, poor fit]"
O=C(CCNC(=O)Cn1cnc2ccccc2c1=O)NCCC1=CCCCC1,-38.6%,"13 µM [falling, partial curve, poor fit]","23.1 µM [falling, partial curve]"
Cc1cccc(NC(=O)CSc2nnc(C)c(C)n2)c1,10.9%,–,–
CCOCCOC(=O)c1ccc(-n2cnc(C)n2)nc1,-36%,–,"29.1 µM [falling, single point]"
COc1ccc(N2CC(O)(c3ccc(OC(F)F)cc3)[N+]3=C2CCCC3)cc1 (stereo not drawn),-59.7%,"5.17 µM [falling, full curve]","0.103 µM [falling, full curve, poor fit]"
O=C(NC(=S)NCc1cccnc1)c1ccccc1[N+](=O)[O-],-50.9%,"18.4 µM [falling, single point]","16.4 µM [falling, partial curve, poor fit]"
NC(=O)Cn1cnc2c(nnn2-c2ccc(F)cc2)c1=O,23.4%,–,–
O=C(Nc1ccc2c(c1)OCCO2)C1CCN(c2cnccn2)CC1,25.4%,"7.31 µM [rising, partial curve]",–

# An excerpt of these results, bar-delimited.
SMILES | cell number change | AC50 [1] | AC50 [2]
CC1CCN(C(=O)c2cc(-c3ccc4c(c3)OCO4)on2)CC1 | 5.56% | 6.51 µM [rising, single point] | –
C/C=C/c1ccc(OCC(=O)N(C)CC(=O)Nc2ccc(F)cc2)c(OC)c1 | -2.03% | 0.291 µM [rising, partial curve, poor fit] | –
COc1ccc2ccccc2c1/C=N/NC(=S)Nc1cc(S(=O)(=O)N2CCOCC2)ccc1N1CCOCC1 | 6.51% | – | –
Cc1ccccc1NC(=O)COC(=O)C1=COCCO1 | 22.7% | 2.59 µM [rising, full curve] | –
COc1cccc(-n2nnnc2SCC(=O)Nc2ccc3c(c2)OCCO3)c1 | -10.7% | 1.84 µM [rising, partial curve] | 1.84 µM [rising, partial curve]
O=C1Nc2ncccc2OC1CCO (stereo not drawn) | – | 0.146 µM [falling, full curve, poor fit] | –
CC(C)(C)OC(=O)NCCCC[C@H](NC(=O)c1nc[nH]c1C(=O)NCc1ccc(CNC(=O)OC(C)(C)C)cc1)C(=O)OC(C)(C)C | 6.89% | 29.1 µM [falling, single point] | –
CCn1c(C)nc2cc(C(=O)NNS(=O)(=O)c3c(F)cc(F)c(Cl)c3F)ccc21 | 24.7% | – | –
Oc1c(N=NC(=S)Nc2ccccc2F)c2ccccc2n1Cc1ccc(F)cc1 | -34.4% | 29.1 µM [falling, single point] | 20.6 µM [falling, single point]
Cc1c(C(=O)Nc2ccccn2)oc2ccccc12 | -20.7% | 0.651 µM [rising, single point] | –
CCC(C)(C)C1CCC2(CC1)NC(=O)N(CC(=O)N(C)CC(=O)Nc1ccccc1C(F)(F)F)C2=O (stereo not drawn) | 3.24% | 9.2 µM [falling, single point] | –
C[C@@H]1CC=C[C@H]2[C@H]1C(=O)N(Cc1ccccc1)[C@H]2c1ccc(F)c(-c2ccc(N(C)C)cc2)c1 | -28.1% | – | –
c1ccc(-c2nnnc3ccccc23)cc1 | 5.01% | 0.103 µM [rising, full curve, poor fit] | –
O=[N+]([O-])c1ccc(S(=O)(=O)Nc2ccc(S(=O)(=O)N3CCCC3)cc2)cc1 | -8.97% | 6.51 µM [rising, partial curve, poor fit] | –
CCN1CCN(C(=O)c2ccc(COc3cccc(Cl)c3)o2)CC1 | 1.59% | – | 3.66 µM [rising, partial curve, poor fit]
Cc1cc(C)cc(OCCNS(=O)(=O)c2cccs2)c1 | 1.73% | – | 2.91 µM [falling, single point]
Cc1ccc(SCC(=O)Nc2ccc(S(N)(=O)=O)cc2)cc1 | 9.17% | 0.58 µM [falling, single point] | –
O=C(c1ccccc1)N1CCN=C1c1ccccc1 | -0.916% | 6.51 µM [rising, single point] | –

# Following part.

SMILES,cell number change,AC50 [1],AC50 [2]
CCn1c(SCCC(=O)Nc2ccccc2)nnc1-c1ccc(OC)cc1,0.397%,"29.1 µM [falling, single point]",–
COC(=O)C(NS(=O)(=O)c1ccc(C)cc1)c1ccccc1 (stereo not drawn),19.7%,–,–
Cc1ccc(C(=O)n2nc(-n3cccc3)c3c(C)cc(C)nc32)cc1,32.1%,"6.51 µM [falling, partial curve, poor fit]",–
O=C(CNC(=O)c1ccc(F)cc1)c1ccc(Cl)cc1,9.17%,–,–
Cc1cc(C(=O)N/N=C(\CCC(=O)O)c2cccs2)c2ccccc2n1,–,"2.06 µM [falling, partial curve]",–
O=C(NCc1ccco1)/C(=C/c1ccc([N+](=O)[O-])cc1)NC(=O)c1ccco1,10.3%,"0.116 µM [rising, single point]",–
CSc1ccc(CN(C)Cc2nc3cc(C(F)(F)F)ccc3c(=O)[nH]2)cc1,-9.25%,–,–
COc1ccc(-c2csc3nc[nH]c(=O)c23)cc1OC,4.5%,–,–
Cc1cc(C(=O)NC2CCCN(Cc3ccc(Cl)cc3)C2)no1 (stereo not drawn),-21.8%,"29.1 µM [rising, single point]",–
CC1CCCCN1CCNC(=O)c1ccc2c(c1)N(Cc1ccccc1)C(=O)c1ccccc1S2(=O)=O (stereo not drawn),–,"1.3 µM [rising, full curve]",–
O=C(O)c1ccc(S(=O)(=O)c2ccc([N+](=O)[O-])cc2[N+](=O)[O-])cc1,24.8%,"18.4 µM [rising, partial curve]",–
COc1ccc(CNC(=O)C/C(C)=N/NC(=O)COc2cccc(C)c2)cc1,3.3%,"0.082 µM [falling, full curve, poor fit]",–
O=C(Nc1ccccc1F)c1ccc(CSc2ccccc2)o1,10.9%,–,–
COC(=O)C1=C(C)N(Cc2ccc(OC)c(OC)c2)C(=O)C1,15.4%,–,–
Cc1ccc(OCC(=O)N/N=C\c2cccs2)c([N+](=O)[O-])c1,23%,"20.6 µM [rising, single point]",–
O=C(NCS(=O)(=O)c1ccccc1)c1ccccc1,–,"1.3 µM [falling, full curve]",–
Cc1ccc(-c2cc(C(=O)NCc3cccs3)no2)cc1,12.4%,"6.51 µM [rising, partial curve, poor fit]",–
Cc1cc2nc(/N=C(\N)NC(=O)N3c4ccccc4Sc4ccccc43)nc(C)c2cc1C,26.2%,"2.06 µM [rising, partial curve]",–
Cc1cccc(-n2ncc3c(NCc4cccs4)ncnc32)c1,-37.3%,"7.31 µM [falling, partial curve, poor fit]",–
CCCOc1ccccc1NC(=O)Nc1ccccc1Cl,45.1%,"29.1 µM [rising, single point]","29.1 µM [rising, single point]"
